Assay results: patent publication US20030215451A1
Results are given in words; binding and its absence hold for the method and conditions named. Some entries that bind do so weakly or less than the wild type. Sequences can lack the tags named with a protein.

Sequences of proteins named here, by UniProt entry; tags and fusion partners are left off. A change or cut given only in a name is not applied to a line headed by its entry.
UniProt P06756: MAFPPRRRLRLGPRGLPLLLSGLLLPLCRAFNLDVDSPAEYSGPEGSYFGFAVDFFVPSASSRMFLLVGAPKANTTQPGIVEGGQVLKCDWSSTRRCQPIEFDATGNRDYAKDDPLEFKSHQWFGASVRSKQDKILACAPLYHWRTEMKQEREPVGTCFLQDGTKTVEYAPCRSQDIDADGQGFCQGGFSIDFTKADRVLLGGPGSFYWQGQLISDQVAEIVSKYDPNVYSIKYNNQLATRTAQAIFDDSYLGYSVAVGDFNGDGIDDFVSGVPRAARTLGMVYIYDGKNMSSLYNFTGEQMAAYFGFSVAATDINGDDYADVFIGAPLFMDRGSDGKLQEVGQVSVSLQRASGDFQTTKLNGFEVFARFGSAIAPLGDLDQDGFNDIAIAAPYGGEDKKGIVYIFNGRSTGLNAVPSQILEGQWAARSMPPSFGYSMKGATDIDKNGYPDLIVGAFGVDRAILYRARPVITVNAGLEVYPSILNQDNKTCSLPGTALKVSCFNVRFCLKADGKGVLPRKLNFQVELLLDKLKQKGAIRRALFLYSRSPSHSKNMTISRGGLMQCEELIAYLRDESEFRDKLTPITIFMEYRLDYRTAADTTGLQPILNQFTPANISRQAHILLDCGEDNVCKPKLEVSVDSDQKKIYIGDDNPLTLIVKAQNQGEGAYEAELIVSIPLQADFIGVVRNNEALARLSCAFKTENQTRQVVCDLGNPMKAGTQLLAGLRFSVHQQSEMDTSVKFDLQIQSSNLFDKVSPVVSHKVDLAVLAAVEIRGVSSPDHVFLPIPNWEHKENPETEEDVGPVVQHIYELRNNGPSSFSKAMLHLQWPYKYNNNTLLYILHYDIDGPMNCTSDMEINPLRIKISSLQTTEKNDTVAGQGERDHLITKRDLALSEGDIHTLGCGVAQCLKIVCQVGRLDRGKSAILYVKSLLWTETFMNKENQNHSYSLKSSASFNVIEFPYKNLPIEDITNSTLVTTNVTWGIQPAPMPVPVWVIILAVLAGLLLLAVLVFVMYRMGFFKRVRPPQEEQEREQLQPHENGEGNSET

Target: integrin αvβ3 (UniProt P06756)
Experiment: adhesion of 293 cells stably transfected with integrin heterodimers to Angptl3-coated microtiter plates, OD405

B1: recombinant human Angptl3 tagged with an amino-terminal gD epitope (ligand, not shown: small tags and cut ends)
chain: SRIDQDNSSFDSLSPEPKSRFAMLDDVKILANGLLQLGHGLKDFVHKTKGQINDIFQKLNIFDQSFYDLSLQTSEIKEEEKELRRTTYKLQVKNEEVKNMSLELNSKLESLLEEKILLQQKVKYLEEQLTNLIQNQPETPEHPEVTSLKTFVEKQDNSIKDLLQTVEDQYKQLNQQHSQIKEIENQLRRTSIQEPTEISLSSKPRAPRTTPFLQLNEIRNVKHDGIPAECTTIYNRGEHTSGMYAIRPSNSQVFHVYCDVISGSPWTLIQHRIDGSQNFNETWENYKYGFGRLDGEFWLGLEKIYSIVKQSNYVLRIELEDWKDNKHYIEYSFYLGNHETNYTLHLVAITGNVPNAIPENKDLVFSTWDHKAKGHFNCPEGYSGGWWWHDECGENNLNGKYNKPRAKSKPERRRGLSWKSQNGRLYSIKSTKMLIHPTDSESFE
modifications: glycosylated (PNGase-F sensitive)
binding: binds
